Measurements as given in PubChem BioAssay AID624297 (National Center for Advancing Translational Sciences (NCATS), 2012).
The whole screen tested about 340,000 compounds, of which about 6,200 (1.8%) were called active. The shares of active, inactive and inconclusive entries below differ from those in the screen. The call rests on the fitted dose curve; in most records, active means well fitted activation curve with a large enough effect; inconclusive means small, poorly fitted or top-dose-only effect; inactive means no such curve, though single readings can be large or run the other way. Where the call is inconclusive, the potency comes from a doubtful curve fit.

Assay: A quantitative high throughput screen for small molecules that induce DNA re-replication in SW480 colon adenocarcinoma cells. Further: nearly all actives have a fitted effect of over 55% in size. On re-replication activation: % of control where 0% means no effect.
Settings: Hoechst DNA content imaging, 48 h; re-replication activation: at 46.1 µM (top of the series) unless noted
Outline: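 SW480 cells exposed to compounds for 48 hr at 37 C, 5% CO2, then Hoechst-stained 40 min. Nuclear DNA content imaged by fluorescence scanning (405 nm excitation, 500-530 nm emission); re-replication scored as increased high-intensity nuclei.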
Potency means the concentration at half of the fitted maximal effect.

| SMILES | Potency | re-replication activation |
| --- | --- | --- |
| O=S(=O)(c1cccs1)N1CCN(c2ccnc3cc(Cl)ccc23)CC1 | inconclusive: 25.9 µM [activator, single point] | – |
| CCOc1ccc(CN2CCN(Cc3cc4ccccc4[nH]3)CC2CCO)cc1 (stereo not drawn) | inconclusive: 29.1 µM [activator, single point] | – |
| COc1ccccc1C(CC(=O)Nc1ccc(C)c(C)c1)c1ccc(OC(C)C)cc1 (stereo not drawn) | inconclusive: 29.1 µM [activator, single point] | – |
| Cc1sc(NC(=O)CCC(=O)O)c(C#N)c1C | inactive | – |
| C[C@@H](N)C(=O)N[C@H]1CCC2C3CC=C4C[C@@H](O)CC[C@]4(C)C3CC[C@@]21C (stereo partly drawn) | inconclusive: 14.6 µM [activator, single point] | – |
| COCCCNC(=O)C[C@H]1C[C@H](C(=O)N(C(C)C)C(C)C)[C@@]2(C)c3[nH]c4cc(-c5ccco5)ccc4c3CCN2C1=O | inconclusive: 0.651 µM [activator, partial curve, poor fit] | – |
| CC1CCN(S(=O)(=O)c2ccc(C(=O)Nc3nnc(-c4ccncc4)o3)cc2)CC1 | active: 16.4 µM | – |
| CCN1C(=O)/C(=C/c2nc3ccccc3c(=O)n2-c2ccccc2)c2ccccc21 | inconclusive: 2.91 µM [activator, full curve, poor fit] | – |
| CC(=O)Nc1ccc(Nc2nc(C)c([N+](=O)[O-])c(Nc3ccccc3)n2)cc1 | inactive | – |
| Cc1ccc(C(OCC(O)CNC(CO)C(O)c2ccc([N+](=O)[O-])cc2)c2ccccc2)cc1 (stereo not drawn) | inconclusive: 18.4 µM [activator, single point] | – |
| CCn1c(=S)[nH]c2c(=O)n(C)c(=O)n(C)c21 | inactive | – |
| COC(=O)c1cc(S(=O)(=O)C(C)C)c(S(C)=O)s1 (stereo not drawn) | inconclusive: 29.1 µM [activator, partial curve, poor fit] | – |
| Fc1cccc(Cn2cc(C(=S)N3CCOCC3)c3ccccc32)c1 | inactive | – |
| CC1CN(S(=O)(=O)c2ccc(NC(=O)c3cc(-c4ccccc4O)n[nH]3)cc2)CC(C)O1 (stereo not drawn) | inconclusive: 29.1 µM [activator, single point] | – |
| Cc1cc(N/N=C/c2ccccc2O)nc(N2CCOCC2)n1 | inconclusive: 0.184 µM [activator, full curve, poor fit] | – |
| CCN(C(=O)c1cc2c(C)nc3ccccc3c2o1)c1cc(Cl)ccc1OC | inconclusive: 20.6 µM [activator, single point] | – |
| Cc1ccc(NS(=O)(=O)c2ccc(NC(=O)c3cccc(NC(=O)C(C)C)c3)cc2)cc1 | inconclusive: 23.1 µM [activator, single point] | – |
| CN(C)/C=C1\SC(=S)N(c2ccc(Br)cc2)C1=O | inactive | – |
| S=C1SCN(Cc2cccnc2)CN1Cc1cccnc1 | inconclusive: 0.731 µM [activator, full curve, poor fit] | – |
| COc1ccc(SCCN2CCN(CC(C)C)CCC2=O)cc1 | inconclusive: 0.103 µM [activator, partial curve, poor fit] | – |
| Cc1cccc(NC(=S)NNC(=O)c2ccccc2Br)c1 | inactive | – |
| COc1cccc(-n2nnnc2SCC(=O)Nc2cccc(C)n2)c1 | inconclusive: 13 µM [activator, partial curve, poor fit] | – |

| SMILES | Potency | re-replication activation |
| --- | --- | --- |
| COc1ccccc1N1CCN(C(=O)c2oc3ccccc3c2C)CC1 | active: 14.6 µM | – |
| Cc1ccc(NC(=O)C(=O)NCC2CCN(C(=O)c3cccc([N+](=O)[O-])c3)CC2)cc1 | inconclusive: 9.2 µM [activator, partial curve, poor fit] | – |
| O=C(COC(=O)c1cccs1)c1ccc2c(c1)OCCO2 | inconclusive: 29.1 µM [activator, single point] | – |
| CCn1c(SC)nc2c(c1=O)SC(C)C2 (stereo not drawn) | inactive | – |
| Cc1[nH]nc(N=CC2=C(O)CC(C)(C)CC2=O)c1-c1ccc(Cl)cc1 | inconclusive: 29.1 µM [activator, single point] | – |
| O=C(Nc1cccc(O)c1)c1noc2c1CCc1ccccc1-2 | inactive | – |
| Cc1ccc2nc(N(CCCN(C)C)C(=O)c3ccc4c(c3)CCCC4)sc2c1 | inconclusive: 29.1 µM [activator, single point] | – |
| COC(=O)c1ccc2c(=O)n(Cc3ccc4c(c3)OCO4)c(=S)[nH]c2c1 | – | inconclusive: 68.6% [activator] |
| COc1cc(-c2c(-c3cc(OC)c(OC)c(OC)c3)noc2C)ccc1F | active: 1.3 µM | – |
| COC(=O)C1=CNC=C(C(=O)OC)C1c1ccccc1Cl | inconclusive: 18.4 µM [activator, single point] | – |
| Cc1nc(C)c(C(=O)N/N=C/c2cn(C)c3ccccc23)s1 | inactive | – |
| COc1ccc(C(=O)Nc2cccc(C(=O)Nc3cc(C)ccn3)c2)cc1 | inactive | – |
| O=C(Nc1ncccn1)c1ccc(Cl)c([N+](=O)[O-])c1 | inconclusive: 29.1 µM [activator, partial curve, poor fit] | – |
| O=C(Nc1ccccc1Br)C1CCCN1S(=O)(=O)c1cccc2nsnc12 (stereo not drawn) | inconclusive: 14.6 µM [activator, partial curve, poor fit] | – |
| O=S(=O)(c1ccc(Cl)c(NC(=S)N/N=C/c2c(F)cccc2F)c1)N1CCOCC1 | inconclusive: 16.4 µM [activator, partial curve] | – |
| C=C1C(=O)[C@@]23[C@H](O)C[C@@H]4C(C)(C)CC[C@H](O)[C@@]4(C)[C@@H]2CC[C@@H]1[C@H]3O | inconclusive: 1.3 µM [activator, full curve] | – |
| COc1ccc2[nH]cc(CCNC(=O)Cc3c(F)cccc3Cl)c2c1 | inconclusive: 1.64 µM [activator, partial curve, poor fit] | – |
| COc1ccc(OC)c(-c2c3cc(O)c(=O)cc-3oc3cc(O)c(O)cc23)c1 | inconclusive: 20.6 µM [activator, single point] | – |
| COCC1=C(C(=O)OC)C(c2cccs2)n2ncnc2N1 (stereo not drawn) | inconclusive: 18.4 µM [activator, single point] | – |
| O=C(NCc1ccccc1)C(=O)NCC(c1ccco1)N1CCOCC1 (stereo not drawn) | inactive | – |
| Cn1nnc2c[n+](CC(=O)c3ccc4ccccc4c3)cc(Br)c21 | inconclusive: 29.1 µM [activator, single point] | – |

At a glance, 3 of the compounds above:

| SMILES | Potency | re-replication activation |
| --- | --- | --- |
| CC(=O)Nc1ccc(Nc2nc(C)c([N+](=O)[O-])c(Nc3ccccc3)n2)cc1 | inactive | – |
| Cc1ccc(C(OCC(O)CNC(CO)C(O)c2ccc([N+](=O)[O-])cc2)c2ccccc2)cc1 (stereo not drawn) | inconclusive: 18.4 µM [activator, single point] | – |
| CCn1c(=S)[nH]c2c(=O)n(C)c(=O)n(C)c21 | inactive | – |
